log2 fold change data for 35 targets are collected here from the supplement of paper PMC10849652.

Protein sequences, listed by entry. Tags and fused reporters are not part of them. Lines headed by an entry give the natural chain unless they say otherwise; changes in a name come on top.
UniProt P24666: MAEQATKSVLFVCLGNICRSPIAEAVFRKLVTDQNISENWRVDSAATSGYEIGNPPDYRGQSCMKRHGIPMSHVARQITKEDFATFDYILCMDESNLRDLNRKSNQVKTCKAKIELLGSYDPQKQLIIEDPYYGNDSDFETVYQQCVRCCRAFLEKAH
UniProt Q13444: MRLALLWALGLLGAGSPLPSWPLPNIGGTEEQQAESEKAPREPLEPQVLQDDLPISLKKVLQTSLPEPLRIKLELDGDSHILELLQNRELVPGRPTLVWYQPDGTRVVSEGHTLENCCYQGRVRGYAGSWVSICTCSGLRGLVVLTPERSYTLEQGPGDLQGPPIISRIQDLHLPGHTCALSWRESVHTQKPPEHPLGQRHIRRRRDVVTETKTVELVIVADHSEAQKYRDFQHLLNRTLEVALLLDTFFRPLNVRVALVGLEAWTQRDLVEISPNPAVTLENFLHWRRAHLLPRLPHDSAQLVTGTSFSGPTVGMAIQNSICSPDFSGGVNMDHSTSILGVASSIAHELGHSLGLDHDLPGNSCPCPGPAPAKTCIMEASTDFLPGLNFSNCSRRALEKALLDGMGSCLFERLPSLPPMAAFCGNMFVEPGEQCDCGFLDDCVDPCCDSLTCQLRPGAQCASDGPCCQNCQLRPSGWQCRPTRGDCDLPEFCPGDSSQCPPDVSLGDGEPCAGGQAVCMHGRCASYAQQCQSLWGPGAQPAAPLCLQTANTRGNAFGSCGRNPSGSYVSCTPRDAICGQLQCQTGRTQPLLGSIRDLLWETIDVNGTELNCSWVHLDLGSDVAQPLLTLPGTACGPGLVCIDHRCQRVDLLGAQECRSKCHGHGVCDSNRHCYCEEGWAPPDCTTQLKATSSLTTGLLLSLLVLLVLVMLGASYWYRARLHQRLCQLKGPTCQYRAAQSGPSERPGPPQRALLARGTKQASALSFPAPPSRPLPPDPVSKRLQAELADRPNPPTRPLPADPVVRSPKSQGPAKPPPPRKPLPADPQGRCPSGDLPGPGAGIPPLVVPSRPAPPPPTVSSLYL
UniProt Q6PD74: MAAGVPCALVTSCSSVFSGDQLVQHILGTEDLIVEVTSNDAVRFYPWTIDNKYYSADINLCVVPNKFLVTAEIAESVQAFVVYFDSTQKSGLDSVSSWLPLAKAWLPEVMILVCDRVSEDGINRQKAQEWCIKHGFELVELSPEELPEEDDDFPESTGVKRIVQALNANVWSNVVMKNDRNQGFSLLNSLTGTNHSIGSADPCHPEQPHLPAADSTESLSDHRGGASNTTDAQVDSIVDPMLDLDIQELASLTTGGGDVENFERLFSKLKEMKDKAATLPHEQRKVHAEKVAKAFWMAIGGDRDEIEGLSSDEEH
UniProt Q9UKU0: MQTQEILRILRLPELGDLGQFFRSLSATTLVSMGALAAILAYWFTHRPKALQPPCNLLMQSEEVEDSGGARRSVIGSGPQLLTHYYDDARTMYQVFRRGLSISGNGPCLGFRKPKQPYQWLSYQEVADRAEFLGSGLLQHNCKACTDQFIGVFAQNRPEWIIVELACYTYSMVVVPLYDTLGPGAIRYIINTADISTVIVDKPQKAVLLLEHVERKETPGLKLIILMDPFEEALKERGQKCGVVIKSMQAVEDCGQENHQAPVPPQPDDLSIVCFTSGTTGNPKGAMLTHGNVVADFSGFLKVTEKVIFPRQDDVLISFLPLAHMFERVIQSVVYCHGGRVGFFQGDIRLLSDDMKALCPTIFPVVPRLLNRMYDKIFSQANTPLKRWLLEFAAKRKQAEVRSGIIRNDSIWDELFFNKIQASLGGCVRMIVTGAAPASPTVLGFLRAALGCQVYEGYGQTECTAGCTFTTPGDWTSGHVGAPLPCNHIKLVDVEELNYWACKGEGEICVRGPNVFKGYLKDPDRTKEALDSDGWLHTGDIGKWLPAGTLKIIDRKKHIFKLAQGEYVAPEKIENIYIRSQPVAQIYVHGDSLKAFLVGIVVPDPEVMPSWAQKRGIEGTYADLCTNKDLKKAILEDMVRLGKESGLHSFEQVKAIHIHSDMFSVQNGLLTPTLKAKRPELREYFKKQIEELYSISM
UniProt Q562R1, whole entry, looked up: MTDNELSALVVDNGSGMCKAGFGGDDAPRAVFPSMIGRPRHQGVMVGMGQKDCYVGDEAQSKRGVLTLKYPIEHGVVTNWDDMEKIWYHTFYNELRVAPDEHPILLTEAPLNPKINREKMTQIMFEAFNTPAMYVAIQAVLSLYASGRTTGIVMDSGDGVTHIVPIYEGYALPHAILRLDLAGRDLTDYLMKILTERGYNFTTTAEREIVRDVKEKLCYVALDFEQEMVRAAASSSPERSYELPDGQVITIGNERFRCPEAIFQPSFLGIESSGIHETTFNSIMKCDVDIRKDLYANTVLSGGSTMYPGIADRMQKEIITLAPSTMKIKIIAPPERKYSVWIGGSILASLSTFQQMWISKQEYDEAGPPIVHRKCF
UniProt Q99798: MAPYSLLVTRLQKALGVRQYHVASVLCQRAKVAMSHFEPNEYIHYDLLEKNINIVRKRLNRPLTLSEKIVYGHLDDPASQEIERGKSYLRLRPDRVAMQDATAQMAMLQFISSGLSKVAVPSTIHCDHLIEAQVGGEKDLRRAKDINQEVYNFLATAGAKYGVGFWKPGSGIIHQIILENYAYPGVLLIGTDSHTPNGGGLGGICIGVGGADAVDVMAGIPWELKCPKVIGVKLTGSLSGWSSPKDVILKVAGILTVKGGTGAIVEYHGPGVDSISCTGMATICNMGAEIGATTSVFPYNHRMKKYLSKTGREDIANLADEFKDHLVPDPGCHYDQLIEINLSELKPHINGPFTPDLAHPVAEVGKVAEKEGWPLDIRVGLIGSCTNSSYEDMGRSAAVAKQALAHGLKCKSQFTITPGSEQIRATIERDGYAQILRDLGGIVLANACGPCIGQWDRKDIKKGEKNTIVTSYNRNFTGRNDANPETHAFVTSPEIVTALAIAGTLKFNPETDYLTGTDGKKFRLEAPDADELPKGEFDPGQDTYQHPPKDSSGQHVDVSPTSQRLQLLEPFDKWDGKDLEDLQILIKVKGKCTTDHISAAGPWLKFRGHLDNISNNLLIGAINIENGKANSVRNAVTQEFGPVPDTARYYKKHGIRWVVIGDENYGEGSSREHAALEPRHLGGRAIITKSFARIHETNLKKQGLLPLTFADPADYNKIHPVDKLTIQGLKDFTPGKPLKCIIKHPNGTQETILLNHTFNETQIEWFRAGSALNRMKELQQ
UniProt P11310: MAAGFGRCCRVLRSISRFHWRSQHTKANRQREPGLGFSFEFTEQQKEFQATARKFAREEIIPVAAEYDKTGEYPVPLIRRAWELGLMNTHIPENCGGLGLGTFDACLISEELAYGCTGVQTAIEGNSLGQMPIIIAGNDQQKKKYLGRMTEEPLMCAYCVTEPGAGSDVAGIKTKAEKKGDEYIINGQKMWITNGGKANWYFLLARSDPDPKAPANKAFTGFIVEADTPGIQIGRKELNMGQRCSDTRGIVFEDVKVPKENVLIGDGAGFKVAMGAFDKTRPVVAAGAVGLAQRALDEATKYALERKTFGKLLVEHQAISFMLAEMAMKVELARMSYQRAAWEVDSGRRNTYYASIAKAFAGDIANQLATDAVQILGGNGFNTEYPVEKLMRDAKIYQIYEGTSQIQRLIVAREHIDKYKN
UniProt Q9UKV3: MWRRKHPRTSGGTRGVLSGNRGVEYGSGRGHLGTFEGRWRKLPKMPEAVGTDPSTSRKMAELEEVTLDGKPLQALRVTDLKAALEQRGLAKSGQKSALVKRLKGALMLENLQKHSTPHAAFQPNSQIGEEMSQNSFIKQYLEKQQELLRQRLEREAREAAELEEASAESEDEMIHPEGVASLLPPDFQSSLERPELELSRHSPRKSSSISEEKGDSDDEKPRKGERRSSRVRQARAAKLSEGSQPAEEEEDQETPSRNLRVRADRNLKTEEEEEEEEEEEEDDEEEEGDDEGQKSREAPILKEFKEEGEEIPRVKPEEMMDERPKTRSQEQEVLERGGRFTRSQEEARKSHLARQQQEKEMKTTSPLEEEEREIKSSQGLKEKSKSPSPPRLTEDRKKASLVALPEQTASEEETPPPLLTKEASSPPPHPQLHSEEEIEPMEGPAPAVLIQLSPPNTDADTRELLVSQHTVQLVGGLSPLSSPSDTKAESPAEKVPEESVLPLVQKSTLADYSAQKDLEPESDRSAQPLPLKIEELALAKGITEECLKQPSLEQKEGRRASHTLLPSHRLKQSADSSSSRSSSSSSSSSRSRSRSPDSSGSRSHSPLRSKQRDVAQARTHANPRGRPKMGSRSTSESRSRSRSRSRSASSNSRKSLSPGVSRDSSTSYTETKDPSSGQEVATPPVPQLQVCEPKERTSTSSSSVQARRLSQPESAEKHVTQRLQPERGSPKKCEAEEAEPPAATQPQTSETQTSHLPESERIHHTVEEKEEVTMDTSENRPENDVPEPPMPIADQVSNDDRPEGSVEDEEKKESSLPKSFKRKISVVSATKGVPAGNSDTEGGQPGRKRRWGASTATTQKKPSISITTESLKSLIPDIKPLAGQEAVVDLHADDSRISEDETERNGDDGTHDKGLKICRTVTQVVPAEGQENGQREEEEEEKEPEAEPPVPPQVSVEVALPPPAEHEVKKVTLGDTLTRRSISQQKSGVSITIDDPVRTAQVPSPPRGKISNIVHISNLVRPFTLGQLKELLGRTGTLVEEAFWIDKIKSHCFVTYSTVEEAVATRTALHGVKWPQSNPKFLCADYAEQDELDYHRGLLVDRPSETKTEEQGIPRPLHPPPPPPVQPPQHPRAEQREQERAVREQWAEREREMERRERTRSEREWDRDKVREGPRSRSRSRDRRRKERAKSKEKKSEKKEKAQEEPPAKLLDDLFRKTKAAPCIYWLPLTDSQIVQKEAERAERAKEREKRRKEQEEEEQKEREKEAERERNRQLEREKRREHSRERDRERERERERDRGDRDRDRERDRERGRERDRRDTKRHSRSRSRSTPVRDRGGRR
UniProt Q9BR61: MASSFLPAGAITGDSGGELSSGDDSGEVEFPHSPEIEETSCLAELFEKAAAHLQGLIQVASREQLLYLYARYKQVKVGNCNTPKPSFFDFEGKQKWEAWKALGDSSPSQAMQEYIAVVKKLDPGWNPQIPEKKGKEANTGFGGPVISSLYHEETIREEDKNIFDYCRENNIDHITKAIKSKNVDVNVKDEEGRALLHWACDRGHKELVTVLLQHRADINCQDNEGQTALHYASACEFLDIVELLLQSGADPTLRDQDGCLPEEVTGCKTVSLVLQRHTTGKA
UniProt P49748: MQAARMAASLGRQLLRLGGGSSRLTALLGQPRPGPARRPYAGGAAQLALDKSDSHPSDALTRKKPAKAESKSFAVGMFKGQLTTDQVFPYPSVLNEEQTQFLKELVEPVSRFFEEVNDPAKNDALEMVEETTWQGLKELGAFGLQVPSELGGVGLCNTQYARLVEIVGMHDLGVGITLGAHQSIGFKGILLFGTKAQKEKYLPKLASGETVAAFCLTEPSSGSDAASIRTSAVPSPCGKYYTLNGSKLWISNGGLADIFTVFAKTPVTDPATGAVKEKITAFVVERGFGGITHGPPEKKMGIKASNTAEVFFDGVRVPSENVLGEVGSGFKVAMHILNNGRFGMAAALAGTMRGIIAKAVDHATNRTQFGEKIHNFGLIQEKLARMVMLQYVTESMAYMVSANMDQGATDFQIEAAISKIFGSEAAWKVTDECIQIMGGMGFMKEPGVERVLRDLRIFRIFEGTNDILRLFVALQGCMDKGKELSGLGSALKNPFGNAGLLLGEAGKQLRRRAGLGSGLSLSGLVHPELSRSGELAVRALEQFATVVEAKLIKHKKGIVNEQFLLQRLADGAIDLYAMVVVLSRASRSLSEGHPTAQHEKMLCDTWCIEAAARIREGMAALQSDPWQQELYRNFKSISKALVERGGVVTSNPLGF
UniProt Q9ULC5: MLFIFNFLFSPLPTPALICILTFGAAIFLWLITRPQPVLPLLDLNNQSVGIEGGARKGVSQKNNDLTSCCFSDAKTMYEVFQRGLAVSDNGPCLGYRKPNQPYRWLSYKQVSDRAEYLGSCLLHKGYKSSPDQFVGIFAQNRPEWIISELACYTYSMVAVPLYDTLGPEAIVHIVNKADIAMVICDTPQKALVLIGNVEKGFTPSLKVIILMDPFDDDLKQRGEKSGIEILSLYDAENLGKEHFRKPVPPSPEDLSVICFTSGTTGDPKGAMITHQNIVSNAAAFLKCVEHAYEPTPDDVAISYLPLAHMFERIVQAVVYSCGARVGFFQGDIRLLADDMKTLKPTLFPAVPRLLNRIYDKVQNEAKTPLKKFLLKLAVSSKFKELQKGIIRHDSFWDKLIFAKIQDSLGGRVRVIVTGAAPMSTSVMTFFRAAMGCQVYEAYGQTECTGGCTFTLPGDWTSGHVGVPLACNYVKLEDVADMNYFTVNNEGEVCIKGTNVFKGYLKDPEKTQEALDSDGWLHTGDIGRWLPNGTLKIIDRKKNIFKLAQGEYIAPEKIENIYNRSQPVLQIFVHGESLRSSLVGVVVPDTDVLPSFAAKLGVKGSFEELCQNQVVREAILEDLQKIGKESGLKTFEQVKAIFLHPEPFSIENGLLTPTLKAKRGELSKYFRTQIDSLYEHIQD

Some of the results follow.

Compound in the assay: CNC(=O)C1=CC=CC=C1NC2=NC(=NC=C2Cl)NC3=C(C=C(C=C3)N4CCOCC4)OC
The assay can be described thus: log2 fold change, soluble protein after heating vs DMSO (PISA); higher = thermal stabilisation; K562 cells, 10 uM, 30 min; active = over 0.2 and 3.5 SD of the protein, either way, in both replicates (recomputed). The essentials: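 Values are thermal stability changes relative to control samples and are taken from duplicates. They are stated as log2 fold changes. Before quantification by TMTpro 16plex LC-MS/MS with equalised channel sums, K562 cells at 2×10^6 cells/mL were treated with 10 μM compound for 30 min, heated in aliquots for 3 min across 48°C-58°C, pooled, extracted in PBS with 0.5% NP-40 at 4°C, and centrifuged at 21,000xg for 90 min to give the soluble supernatant.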
For the target AAK1 (UniProt Q2M2I8), the log2 fold change was inactive: 0.281. Take ADAMTS5 (UniProt Q9UNA0): the log2 fold change is inactive: -0.13. In the case of ABHD13 (UniProt Q7L211) it was inactive: 0.012; in that of ACSL1 (UniProt P33121), inactive: -0.003; in that of ABHD16A (UniProt O95870), inactive: 0.031. In the case of ACP1 isoform 2 (UniProt P24666), the log2 fold change is inactive: 0.038.

As to AAR2 (UniProt Q9Y312), the log2 fold change was inactive: -0.049. The same measure for ACSM3 (UniProt Q53FZ2): inactive: 0.053; for ABCC10 (UniProt Q5T3U5): inactive: 0.012. In the case of AAMP (UniProt Q13685) it was inactive: 0.022; in that of ACSL4 (UniProt O60488), inactive: 0.05.

In the case of ABHD17A isoform 2 (UniProt Q96GS6), the log2 fold change was active: -0.595. In the case of ACAP2 (UniProt Q15057) it was inactive: 0.031. The same measure for ACTR1B (UniProt P42025): inactive: 0; for ACP1 (UniProt P24666): inactive: -0.1; for ADAD1 (UniProt Q96M93): inactive: -0.049. The same measure for ABCC5 (UniProt O15440): inactive: -0.02; for ACSL3 (UniProt O95573): inactive: -0.008; for ADAM15 (UniProt Q13444): inactive: -0.211. For the target AAGAB (UniProt Q6PD74), the log2 fold change is inactive: 0.112. Turning to ACSL6 isoform 1 (UniProt Q9UKU0), the log2 fold change was inactive: -0.048. In the case of ACTBL2 (UniProt Q562R1) it was inactive: 0.158; in that of ABCB6 (UniProt Q9NP58), inactive: -0.013.

Turning to ABCA3 (UniProt Q99758), the log2 fold change is inactive: 0.065. The same measure for AASDH (UniProt Q4L235): inactive: -0.014; for ACO2 (UniProt Q99798): inactive: 0.016.

In the case of ACADM isoform 2 (UniProt P11310), the log2 fold change is inactive: 0.019. With ACIN1 (UniProt Q9UKV3), the log2 fold change is inactive: -0.165. In the case of AAK1, A0A096LP25 it was inactive: 0.333. The same measure for ACSF3 (UniProt Q4G176): inactive: 0.099; for AARS2 (UniProt Q5JTZ9): inactive: -0.019; for ACBD6 (UniProt Q9BR61): inactive: 0.067. For the target ACADVL isoform 3 (UniProt P49748), the log2 fold change is inactive: -0.022. In the case of ACSL5 isoform 3 (UniProt Q9ULC5) it was inactive: 0.071; in that of AARSD1 isoform 3 (UniProt Q9BTE6), inactive: 0.081.
